From PubChem BioAssay AID1347075 (National Center for Advancing Translational Sciences (NCATS), 2019)
Out of some 400,000 compounds screened, about 5,500 (1.4%) were called active. The inconclusive results got no clear call from the source; some entries with a clear call stand among them for comparison. The call rests on the fitted dose curve; in most records, active means well fitted cell-killing curve with a large enough effect; inconclusive means small, poorly fitted or top-dose-only effect, or effect the other way; inactive means flat fitted curve, though single readings scatter. Where the call is inconclusive, the potency comes from a doubtful curve fit.

Test: qHTS assay for MDR1-selective chemotherapeutics: Primary screen using the parental adenocarcinoma cell KB-3-1; further: nearly all actives have a fitted effect of over 60% in size
Conditions: KB-3-1 viability, CellTiter-Glo ATP luminescence, 72 h; series mostly up to 46.1 µM
Method in brief: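 Screening of KB-3-1 cells (DMEM, 10% FBS, phenol-red free) ran from lowest to highest compound concentration; after 72 h at 37 °C viability was read luminescently and curves fitted.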
Potency means the concentration at half of the fitted maximal effect.

Row | Structure (SMILES) | Potency
1 | Cc1cc(C(=O)OC(C(=O)Nc2ccc(C)c(Cl)c2)c2ccccc2)c(C)o1 (stereo not given) | inconclusive: 32.6 µM [cytotoxic, single point]
2 | COc1ccc(NC(=O)c2cccc(Oc3ccc([N+](=O)[O-])cc3Cl)c2)cc1 | inconclusive: 29.1 µM [cytotoxic, single point]
3 | CC(C)CCNC(=O)C12CN(Cc3ccccc3)CC1C(c1ccc([N+](=O)[O-])cc1)=NO2 (stereo not given) | inconclusive: 29.1 µM [cytotoxic, single point]
4 | COc1ccc(C)cc1-n1c(SCC(=O)NC2CC2)nc2ccccc2c1=O | inconclusive: 29.1 µM [cytotoxic, single point]
5 | O=C(COc1ccccc1)N1c2ccccc2Sc2ccccc21 | inconclusive: 29.1 µM [cytotoxic, single point]
6 | Cc1ccnc(Nc2nc(-c3ccccc3)cs2)c1 | inconclusive: 32.6 µM [cytotoxic, single point]
7 | Cc1ccc(S(=O)(=O)c2nc(-c3ccccc3Cl)oc2N(C)C)cc1 | active: 18.4 µM
8 | Cc1ccc(S(=O)(=O)N(C)C)cc1NC(=S)N1CCN(Cc2ccc3c(c2)OCO3)CC1 | inconclusive: 20.6 µM [cytotoxic, single point]
9 | Cc1cc2oc(=O)cc(-c3ccccc3)c2c(C)c1-c1ccc(CO)cc1 | inactive
10 | Cc1ccc(N2C(=O)C3C4C=CC(CNC(=S)Nc5ccc(Cl)cc5)(O4)C3C2=O)cc1 (stereo not given) | inconclusive: 16.4 µM [cytotoxic, single point]
11 | O=C(Cn1ncc(Cl)c(Cl)c1=O)NC1CCCCC1 | inconclusive: 20.6 µM [cytotoxic, single point]
12 | Cc1cccc(Nc2nc(-c3ccccc3)c(C(=O)Nc3cccnc3)s2)c1 | inconclusive: 29.1 µM [cytotoxic, single point]
13 | S=C(Nc1ccccc1)N1CCn2cccc2C1c1cccnc1 (stereo not given) | inactive
14 | Cc1ccccc1Oc1cc(NC(=O)Cn2cnc([N+](=O)[O-])c2)cc([N+](=O)[O-])c1 | inconclusive: 25.9 µM [cytotoxic, single point]
15 | O=c1c2ccccc2nnn1Cc1cccc2ccccc12 | inconclusive: 18.4 µM [cytotoxic, single point]
16 | COc1ccc(-c2cccc(-c3cc(=O)oc4cc(OC)cc(OC)c34)c2)cc1 | active: 0.651 µM
17 | CCn1nc(C)c(NC(=O)c2cnn3c(C(F)F)cc(-c4ccccc4)nc23)c1C | inconclusive: 29.1 µM [rising, single point]
18 | Cc1ccc(-c2cc(C(F)F)n3ncc(C(=O)NN4CCCCC4)c3n2)cc1 | inconclusive: 2.06 µM [rising, full curve, poor fit]
19 | O=C(Nc1nc(-c2cc(Cl)sc2Cl)cs1)c1ccccc1 | inconclusive: 20.6 µM [cytotoxic, single point]
20 | COc1cccc(NC(=O)COC(=O)c2c3c(nc4ccccc24)CCC(C)C3)c1 (stereo not given) | inconclusive: 20.6 µM [cytotoxic, partial curve, poor fit]

Row | Structure (SMILES) | Potency
21 | C=CCN1C(=O)C2(NNc3ccccc3O2)c2ccccc21 (stereo not given) | inconclusive: 23.1 µM [cytotoxic, single point]
22 | CN1CCC2(CC1)N=C(c1ccc(F)cc1)C(=S)N2C(=O)c1ccccc1 | inconclusive: 29.1 µM [cytotoxic, single point]
23 | CCCCCCOC(=O)C[N+](C)(C)CCOC1CC2CCC1(C)C2(C)C (stereo not given) | inactive
24 | COc1cccc(-c2oc3c(c2-c2ccc(Br)nc2)C(O)CCC3)c1 (stereo not given) | inactive
25 | O=C(Nc1ccncc1)c1cc2ccccc2cc1O | inconclusive: 23.1 µM [cytotoxic, single point]
26 | COc1cc(C=C2CCCC(=Cc3ccc(OCC4CO4)c(OC)c3)C2=O)ccc1OCC1CO1 (stereo not given) | inconclusive: 3.26 µM [cytotoxic, partial curve, poor fit]
27 | Cc1c(C(=O)Nc2cccc(Oc3ccccc3)c2)sc(=O)n1Cc1ccc(F)cc1 | inconclusive: 20.6 µM [cytotoxic, single point]
28 | Cc1cc(N2CCN(c3ccccc3Cl)CC2)n2cc(-c3ccccc3)nc2n1 | inconclusive: 18.4 µM [cytotoxic, single point]
29 | CC(C)(C)C(=O)CNS(=O)(=O)c1ccc(S(=O)(=O)NC2CC2)cc1 | inactive
30 | Cc1ccc(OC(C)c2nnc(N)s2)cc1Cl (stereo not given) | inconclusive: 29.1 µM [cytotoxic, single point]
31 | Cc1ccc(NC(=S)NC2CCSc3ccccc32)cc1C (stereo not given) | inconclusive: 29.1 µM [cytotoxic, single point]
32 | CC(C)c1ccc(S(=O)(=O)N2CCCCC2)cc1 | inconclusive: 29.1 µM [cytotoxic, single point]
33 | CCCCCCn1c(=O)n2n(c1=O)[C@@H]1CN(S(=O)(=O)c3ccc(C)cc3)C[C@]1(O)[C@@H](OC(=O)NCc1ccccc1)C2 | inconclusive: 23.1 µM [cytotoxic, single point]
34 | CC1Cc2ccccc2N1C(=O)c1cc2c(=O)n3ccccc3nc2n1C (stereo not given) | inconclusive: 29.1 µM [cytotoxic, single point]
35 | COc1cc(C(=O)NCCC(=O)NCCCN2CCCCC2C)cc(OC)c1OC (stereo not given) | inconclusive: 32.6 µM [cytotoxic, single point]
36 | O=C(CSc1nnnn1-c1cccnc1)Nc1cccc(Cl)c1 | inconclusive: 11.6 µM [rising, partial curve, poor fit]
37 | CCOc1cc(CNc2ccc(N(C)C)cc2)cc(Br)c1OCC(=O)NC(C)(C)C | inconclusive: 20.6 µM [cytotoxic, single point]
38 | Cc1nc2c(OCc3ccc(C#N)cc3)cccn2c1N(C)C(=O)CCC1CCCC1 | inconclusive: 29.1 µM [cytotoxic, single point]
39 | O=C(Nc1cccc(Cl)c1)Nc1ccccc1C(=O)O | inconclusive: 10.3 µM [cytotoxic, partial curve, poor fit]
40 | COc1ccc(COc2cc(-c3cccc(OC)c3)nc3ccc(NC(=O)c4cccnc4)cc23)cc1 | inconclusive: 29.1 µM [cytotoxic, single point]

Molecules listed so far that have a Cl atom:
Row | Structure (SMILES) | Potency
1 | Cc1cc(C(=O)OC(C(=O)Nc2ccc(C)c(Cl)c2)c2ccccc2)c(C)o1 (stereo not given) | inconclusive: 32.6 µM [cytotoxic, single point]
2 | COc1ccc(NC(=O)c2cccc(Oc3ccc([N+](=O)[O-])cc3Cl)c2)cc1 | inconclusive: 29.1 µM [cytotoxic, single point]
7 | Cc1ccc(S(=O)(=O)c2nc(-c3ccccc3Cl)oc2N(C)C)cc1 | active: 18.4 µM
10 | Cc1ccc(N2C(=O)C3C4C=CC(CNC(=S)Nc5ccc(Cl)cc5)(O4)C3C2=O)cc1 (stereo not given) | inconclusive: 16.4 µM [cytotoxic, single point]
11 | O=C(Cn1ncc(Cl)c(Cl)c1=O)NC1CCCCC1 | inconclusive: 20.6 µM [cytotoxic, single point]
19 | O=C(Nc1nc(-c2cc(Cl)sc2Cl)cs1)c1ccccc1 | inconclusive: 20.6 µM [cytotoxic, single point]
28 | Cc1cc(N2CCN(c3ccccc3Cl)CC2)n2cc(-c3ccccc3)nc2n1 | inconclusive: 18.4 µM [cytotoxic, single point]
30 | Cc1ccc(OC(C)c2nnc(N)s2)cc1Cl (stereo not given) | inconclusive: 29.1 µM [cytotoxic, single point]
36 | O=C(CSc1nnnn1-c1cccnc1)Nc1cccc(Cl)c1 | inconclusive: 11.6 µM [rising, partial curve, poor fit]
39 | O=C(Nc1cccc(Cl)c1)Nc1ccccc1C(=O)O | inconclusive: 10.3 µM [cytotoxic, partial curve, poor fit]
